Counter-ions that a name gives are not always drawn. Some of these results come from one statement about several compounds together.
Tests used:
[1] = target: protein kinase C (PKC); assay: Mixed micelle assay of protein kinase C; format: biochemical, rat; conditions: pure cationic cholesterol derivative; diolefin, phosphatidyl serine and Ca2+ stimulated PKC; read-out: PKC Inhibition IC50
Description: As rapidly as possible, brains for 25 Sprague-Dawley rats (150-200 g) were removed, washed with 100 ml of 20 mM TRIS, 1 mM EDTA, 1 mM EGTA, pH 7.5, and homogenized in 150 ml of ice cold 20 mM TRIS, 10 mM EGTA, 2 mM EDTA, 10 mM DTT, 0.25 M sucrose, 2 mM PMSF and 100 μg/ml leupeptin, pH 7.5. The homogenate was immediately centrifuged at 100,000 g for 40 minutes at 4° C. in a Beckman Ti 50.2 rotor. The supernatant was applied to a 2.5×20 cm column of DEAE Sepharose (fast flow) containing 60 of resin equilibrated with 20 mM TRIS, 1 mM EDTA, 1 mM DTT, pH 7.5 (buffer A). The column was washed with 300 ml of buffer A and an additional 200 ml of buffer A containing 0.03 M KCl. Protein kinase C was eluted with a 500 ml continuous KCl gradient (0.03-0.3 M KCl). Fractions of 5 ml volumes were collected. Fractions showing calcium and phospholipid dependence were pooled; the salt concentration was adjusted to 1.5 KCl with the appropriate quantity of solid KCl. The crude sample containing 1.5 M KCl was stirred for 15 minutes and subsequently loaded onto a 1×10 cm column containing 9 ml Phenyl sepharose equilibrated with 1.5 M KCl in 20 mM TRIS, 0.5 mM EGTA, 1 mM DTT, pH 7.5 (buffer B). The column was washed with 90 ml of buffer B containing 1.5 M KCl. […] Trace impurities (116 k, 66 k, and 50 k Mr) could still be detected when the gel was silver stained heavily. […]

[2] = Storage stability of lipid dispersions (transfection activity after storage); format: physicochemical; conditions: dispersion with DOPE about 1:1; stored at 4° C. in PBS, pH 7.5

Compound	IC50 [1] [µM]	Time over which transfection activity of the dispersion did not change on storage [2]
CC(C)CCCC(C)C1CCC2C3CC=C4CC(OC(=O)CCC(=O)OCCN(C)CC[N+](C)(C)C)CCC4(C)C3CCC12C (stereo not drawn) [XIII, 2-{[2-Trimethylammonio]ethylmethylamino}ethyl-Cholesteryl-3β-Oxysuccinate Iodine Salt]	< 20	–
CC(C)CCCC(C)C1CCC2C3CC=C4CC(OC(=O)CCC(=O)OC(CN(C)C)C[N+](C)(C)C)CCC4(C)C3CCC12C (racemic) [Compound XI, 1-Dimethylamino-3-Trimethylammonio-DL-2-Propyl-Cholesteryl-3β-Oxysuccinate Iodide Salt]	< 20	–
CC(C)CCCC(C)C1CCC2C3CC=C4CC(OC(=O)NCCN(C)C)CCC4(C)C3CCC12C (stereo not drawn) [Compound XIV, 3β[N-(N′,N′-dimethylaminoethane)-carbamoyl]cholesterol]	–	at least 2 months
3β[N-(polyethyleneimine)-carbamoyl]cholesterol [XV]	–	at least 2 months

Reference: patent US6627218B2, “Cationic amphiphiles of cholesterol” (The University of Tennessee Research Foundation, priority 1991, dated 2003)
